Data taken from US12729225B2, “Non-canonical SWI/SNF complex and uses thereof” (Dana-Farber Cancer Institute, Inc., priority 2018, dated 2026).

B1: SLC33A1 (protein)
chain: MSPTISHKDSSRQRRPGNFSHSLDMKSGPLPPGGWDDSHLDSAGREGDREALLGDTGTGDFLKAPQSFRAELSSILLLLFLYVLQGIPLGLAGSIPLILQSKNVSYTDQAFFSFVFWPFSLKLLWAPLVDAVYVKNFGRRKSWLVPTQYILGLFMIYLSTQVDRLLGNTDDRTPDVIALTVAFFLFEFLAATQDIAVDGWALTMLSRENVGYASTCNSVGQTAGYFLGNVLFLALESADFCNKYLRFQPQPRGIVTLSDFLFFWGTVFLITTTLVALLKKENEVSVVKEETQGITDTYKLLFAIIKMPAVLTFCLLILTAKIGFSAADAVTGLKLVEEGVPKEHLALLAVPMVPLQIILPLIISKYTAGPQPLNTFYKAMPYRLLLGLEYALLVWWTPKVEHQGGFPIYYYIVVLLSYALHQVTVYSMYVSIMAFNAKVSDPLIGGTYMTLLNTVSNLGGNWPSTVALWLVDPLTVKECVGASNQNCRTPDAVELCKKLGGSCVTALDGYYVESIICVFIGFGWWFFLGPKFKKLQDEGSSSWKCKRNN
B2: MTX1 (protein, UniProt Q13505 1-466, looked up)
Metaxin-1: MLLGGPPRSPRSGTSPKGPWSSTGHVQFGKSPQTWPRRTRPRSPEPAAPSGVRGSTWTRRRDSPRRAGPTALSRYVGHLWMGRRPPSPEARGPVPRSSAASRARRSLASPGISPGPLTATIGGAVAGGGPRQGRAEAHKEVFPGQRVGKMAAPMELFCWSGGWGLPSVDLDSLAVLTYARFTGAPLKVHKISNPWQSPSGTLPALRTSHGEVISVPHKIITHLRKEKYNADYDLSARQGADTLAFMSLLEEKLLPVLVHTFWIDTKNYVEVTRKWYAEAMPFPLNFFLPGRMQRQYMERLQLLTGEHRPEDEEELEKELYREARECLTLLSQRLGSQKFFFGDAPASLDAFVFSYLALLLQAKLPSGKLQVHLRGLHNLCAYCTHILSLYFPWDGAEVPPQRQTPAGPETEEEPYRRRNQILSVLAGLAAMVGYALLSGIVSIQRATPARAPGTRTLGMAEEDEEE
B3: RANGAP1 (protein, UniProt P46060 2-587, looked up)
Ran GTPase-activating protein …: ASEDIAKLAETLAKTQVAGGQLSFKGKSLKLNTAEDAKDVIKEIEDFDSLEALRLEGNTVGVEAARVIAKALEKKSELKRCHWSDMFTGRLRTEIPPALISLGEGLITAGAQLVELDLSDNAFGPDGVQGFEALLKSSACFTLQELKLNNCGMGIGGGKILAAALTECHRKSSAQGKPLALKVFVAGRNRLENDGATALAEAFRVIGTLEEVHMPQNGINHPGITALAQAFAVNPLLRVINLNDNTFTEKGAVAMAETLKTLRQVEVINFGDCLVRSKGAVAIADAIRGGLPKLKELNLSFCEIKRDAALAVAEAMADKAELEKLDLNGNTLGEEGCEQLQEVLEGFNMAKVLASLSDDEDEEEEEEGEEEEEEAEEEEEEDEEEEEEEEEEEEEEPQQRGQGEKSATPSRKILDPNTGEPAPVLSSPPPADVSTFLAFPSPEKLLRLGPKSSVLIAQQTDTSDPEKVVSAFLKVSSVFKDEATVRMAVQDAVDALMQKAFNSSSFNSNTFLTRLLVHMGLLKSEDKVKAIANLYGPLMALNHMVQQDYFPKALAPLLLAFVTKPNSALESCSFARHSLLQTLYKV
B4: XPO5 (protein, UniProt Q9HAV4 2-1204, looked up)
Exportin-5: AMDQVNALCEQLVKAVTVMMDPNSTQRYRLEALKFCEEFKEKCPICVPCGLRLAEKTQVAIVRHFGLQILEHVVKFRWNGMSRLEKVYLKNSVMELIANGTLNILEEENHIKDALSRIVVEMIKREWPQHWPDMLIELDTLSKQGETQTELVMFILLRLAEDVVTFQTLPPQRRRDIQQTLTQNMERIFSFLLNTLQENVNKYQQVKTDTSQESKAQANCRVGVAALNTLAGYIDWVSMSHITAENCKLLEILCLLLNEQELQLGAAECLLIAVSRKGKLEDRKPLMVLFGDVAMHYILSAAQTADGGGLVEKHYVFLKRLCQVLCALGNQLCALLGADSDVETPSNFGKYLESFLAFTTHPSQFLRSSTQMTWGALFRHEILSRDPLLLAIIPKYLRASMTNLVKMGFPSKTDSPSCEYSRFDFDSDEDFNAFFNSSRAQQGEVMRLACRLDPKTSFQMAGEWLKYQLSTFLDAGSVNSCSAVGTGEGSLCSVFSPSFVQWEAMTLFLESVITQMFRTLNREEIPVNDGIELLQMVLNFDTKDPLILSCVLTNVSALFPFVTYRPEFLPQVFSKLFSSVTFETVEESKAPRTRAVRNVRRHACSSIIKMCRDYPQLVLPNFDMLYNHVKQLLSNELLLTQMEKCALMEALVLISNQFKNYERQKVFLEELMAPVASIWLSQDMHRVLSDVDAFIAYVGTDQKSCDPGLEDPCGLNRARMSFCVYSILGVVKRTCWPTDLEEAKAGGFVVGYTSSGNPIFRNPCTEQILKLLDNLLALIRTHNTLYAPEMLAKMAEPFTKALDMLDAEKSAILGLPQPLLELNDSPVFKTVLERMQRFFSTLYENCFHILGKAGPSMQQDFYTVEDLATQLLSSAFVNLNNIPDYRLRPMLRVFVKPLVLFCPPEHYEALVSPILGPLFTYLHMRLSQKWQVINQRSLLCGEDEAADENPESQEMLEEQLVRMLTREVMDLITVCCVSKKGADHSSAPPADGDDEEMMATEVTPSAMAELTDLGKCLMKHEDVCTALLITAFNSLAWKDTLSCQRTTSQLCWPLLKQVLSGTLLADAVTWLFTSVLKGLQMHGQHDGCMASLVHLAFQIYEALRPRYLEIRAVMEQIPEIQKDSLDQFDCKLLNPSLQKVADKRRKDQFKRLIAGCIGKPLGEQFRKEVHIKNLPSLFKKTKPMLETEVLDNDGGGLATIFEP
B5: HNRNPDL (protein, UniProt O14979 1-420, looked up)
Heterogeneous nuclear …: MEVPPRLSHVPPPLFPSAPATLASRSLSHWRPRPPRQLAPLLPSLAPSSARQGARRAQRHVTAQQPSRLAGGAAIKGGRRRRPDLFRRHFKSSSIQRSAAAAAATRTARQHPPADSSVTMEDMNEYSNIEEFAEGSKINASKNQQDDGKMFIGGLSWDTSKKDLTEYLSRFGEVVDCTIKTDPVTGRSRGFGFVLFKDAASVDKVLELKEHKLDGKLIDPKRAKALKGKEPPKKVFVGGLSPDTSEEQIKEYFGAFGEIENIELPMDTKTNERRGFCFITYTDEEPVKKLLESRYHQIGSGKCEIKVAQPKEVYRQQQQQQKGGRGAAAGGRGGTRGRGRGQGQNWNQGFNNYYDQGYGNYNSAYGGDQNYSGYGGYDYTGYNYGNYGYGQGYADYSGQQSTYGKASRGGGNHQNNYQPY
B6: PPT1 (protein, UniProt P50897 28-306, looked up)
Palmitoyl-protein …: DPPAPLPLVIWHGMGDSCCNPLSMGAIKKMVEKKIPGIYVLSLEIGKTLMEDVENSFFLNVNSQVTTVCQALAKDPKLQQGYNAMGFSQGGQFLRAVAQRCPSPPMINLISVGGQHQGVFGLPRCPGESSHICDFIRKTLNAGAYSKVVQERLVQAEYWHDPIKEDVYRNHSIFLADINQERGINESYKKNLMALKKFVMVKFLNDSIVDPVDSEWFGFYRSGQAKETIPLQETSLYTQDRLGLKEMDNAGQLVFLATEGDHLQLSEEWFYAHIIPFLG
B7: SAP18 (protein, UniProt O00422 2-153, looked up)
Histone deacetylase complex …: AVESRVTQEEIKKEPEKPIDREKTCPLLLRVFTTNNGRHHRMDEFSRGNVPSSELQIYTWMDATLKELTSLVKEVYPEARKKGTHFNFAIVFTDVKRPGYRVKEIGSTMSGRKGTDDSMTLQSQKFQIGDYLDIAITPPNRAPPPSGRMRPY

System: mSWI/SNF complexes
Assay: mSWI/SNF complex purification with HA-tagged baits and mass spectrometry (peptide counts)
Set-up: species or system human
Conditions: 293_HA-BRD7 bait purification, mass spectrometry; total peptide count per identified protein

| Molecule | Total |
| --- | --- |
| B1 | 1 |
| B2 | 1 |
| B3 | 1 |
| B4 | 1 |
| B5 | 1 |
| B6 | 1 |
| B7 | 1 |

Same assay, conditions: 293_HA-BRD7 bait purification, mass spectrometry; unique peptide count per identified protein

| Molecule | Unique |
| --- | --- |
| B1 | 1 |
| B2 | 1 |
| B3 | 1 |
| B4 | 1 |
| B5 | 1 |
| B6 | 1 |
| B7 | 1 |
